Laboratory results reported in article PMC4605306.

Biological target: Srp19-CBP-2xFLAG (Cryptococcus neoformans var. grubii H99)
Assay: affinity purification with mass spectrometry; tandem affinity purification (anti-FLAG M2 resin, then calmodulin resin) of the CBP-2xFLAG-tagged bait from C. neoformans lysate; two replicates for each bait; hits filtered against a purification from an untagged wild-type strain

binding: binds
B1: Srp72 (protein, UniProt J9VGD8 1-313)
chain: MAPPAKPTSTPKRKPFSPKPPRPAEERLPKLYRALTDQVDDGYFENAIKTCKKILALDASSQTAFQTLLFLHLQTDDYTSALSLLDHPSNEQSLDFERAYCLYRLHREKEALEVLKGLSEKGRKTDHLEAQILYRLGEYSQAQEIYEGMLADCDVSSPEHADIVTNLSATTAHLDFDTHGYHSHLSTTISSTSQTPMNTADLETIVPSLPTGWSSGGLAATVEKKTATVKAPEEKNERSRPRHKLPKGVVAGKEFTEDPERWIPFRQRLSYITAQSKKKGAKESMGTGFTQGSTGGHSAGSGGGGKSKKGKRK

Results are given in words; binding and its absence hold for the method and conditions named. Binding seen in cells or lysates may run through a third protein. These calls come from enrichment with a bait or labelling near it, and not all partners need be listed.
